Experimental data reported in the supplement of paper PMC7661543.
± gives the standard deviation of the averaged measurements. The effect of the compound repeats well; differences between the knockouts mostly do not.

Test system: BT-20
Assay: relative cell number vs DMSO control (72 h) (% of DMSO); higher = less growth inhibition (more cells)
Protocol: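 QMAP-Seq: a pool of 5 breast cancer cell lines (ZR-75-1, SKBR3, HCC-38, MDA-MB-231, BT-20), each carrying 12 doxycycline-inducible Cas9 sgRNA perturbations (11 knockouts plus non-targeting sgNT), was treated with compounds for 72 h at four 10-fold doses (10 nM-10 uM or 1 nM-1 uM range). Barcodes were amplified and sequenced, and cell number was interpolated from 293T spike-in standard curves. The result is expressed as % of the median of DMSO wells. Two biological replicates.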

C[C@]12CC[C@@H]3c4ccc(O)cc4C[C@@H](CCCCCCCCC[S+]([O-])CCCC(F)(F)C(F)(F)F)[C@H]3[C@@H]1CC[C@@H]2O (some centres not stated) [Fulvestrant]
Details	relative cell number
sgRNA knockout: sgATF3, 10 nM	96.5 ± 5.7
sgRNA knockout: sgATF3, 100 nM	88.58 ± 0.19
sgRNA knockout: sgATF3, 1000 nM	94.3 ± 14
sgRNA knockout: sgATF3, 10000 nM	93.2 ± 26
sgRNA knockout: sgATF4, 10 nM	89.22 ± 0.23
sgRNA knockout: sgATF4, 100 nM	81.7 ± 12
sgRNA knockout: sgATF4, 1000 nM	97.2 ± 26
sgRNA knockout: sgATF4, 10000 nM	98.9 ± 7.5
sgRNA knockout: sgATF6, 10 nM	85.3 ± 15
sgRNA knockout: sgATF6, 100 nM	84.7 ± 11
sgRNA knockout: sgATF6, 1000 nM	83.6 ± 1.3
sgRNA knockout: sgATF6, 10000 nM	89.9 ± 9.2
sgRNA knockout: sgATG7, 10 nM	87.1 ± 5.5
sgRNA knockout: sgATG7, 100 nM	83.8 ± 18
sgRNA knockout: sgATG7, 1000 nM	107 ± 6.1
sgRNA knockout: sgATG7, 10000 nM	93.42 ± 0.31
sgRNA knockout: sgERN1, 10 nM	102 ± 4.6
sgRNA knockout: sgERN1, 100 nM	71.3 ± 1.7
sgRNA knockout: sgERN1, 1000 nM	86.1 ± 1.9
sgRNA knockout: sgERN1, 10000 nM	92.7 ± 4.2
sgRNA knockout: sgHSF1, 10 nM	92.5 ± 2.7
sgRNA knockout: sgHSF1, 100 nM	82.8 ± 7.5
sgRNA knockout: sgHSF1, 1000 nM	95.9 ± 7.4
sgRNA knockout: sgHSF1, 10000 nM	87.8 ± 3.5
sgRNA knockout: sgHSF2, 10 nM	118 ± 11
sgRNA knockout: sgHSF2, 100 nM	84 ± 22
sgRNA knockout: sgHSF2, 1000 nM	88.7 ± 1.6
sgRNA knockout: sgHSF2, 10000 nM	97.1 ± 8.5
sgRNA knockout: sgKEAP1, 10 nM	91.1 ± 8.6
sgRNA knockout: sgKEAP1, 100 nM	90.4 ± 7.6
sgRNA knockout: sgKEAP1, 1000 nM	98.1 ± 18
sgRNA knockout: sgKEAP1, 10000 nM	86.2 ± 16
sgRNA knockout: sgNFE2L2, 10 nM	95.1 ± 4.5
sgRNA knockout: sgNFE2L2, 100 nM	92.5 ± 5.2
sgRNA knockout: sgNFE2L2, 1000 nM	87.5 ± 14
sgRNA knockout: sgNFE2L2, 10000 nM	101 ± 11
sgRNA knockout: sgSLC35F2, 10 nM	88.32 ± 0.38
sgRNA knockout: sgSLC35F2, 100 nM	86.7 ± 5.3
sgRNA knockout: sgSLC35F2, 1000 nM	91.2 ± 7.8
sgRNA knockout: sgSLC35F2, 10000 nM	95.3 ± 20
sgRNA knockout: sgXBP1, 10 nM	78.4 ± 3
sgRNA knockout: sgXBP1, 100 nM	94.6 ± 9.8
sgRNA knockout: sgXBP1, 1000 nM	89.4 ± 5.3
sgRNA knockout: sgXBP1, 10000 nM	87.6 ± 15

CC[C@H](C)C(=O)O[C@H]1C[C@@H](C)C=C2C=C[C@H](C)[C@H](CC[C@@H]3C[C@@H](O)CC(=O)O3)[C@H]21 [Lovastatin]
Details	relative cell number
sgRNA knockout: sgATF3, 10 nM	101 ± 19
sgRNA knockout: sgATF3, 100 nM	82.8 ± 9.8
sgRNA knockout: sgATF3, 1000 nM	89.2 ± 13
sgRNA knockout: sgATF3, 10000 nM	63.3 ± 13
sgRNA knockout: sgATF4, 10 nM	107 ± 10
sgRNA knockout: sgATF4, 100 nM	96 ± 1.3
sgRNA knockout: sgATF4, 1000 nM	100 ± 15
sgRNA knockout: sgATF4, 10000 nM	80.6 ± 4.4
sgRNA knockout: sgATF6, 10 nM	113 ± 17
sgRNA knockout: sgATF6, 100 nM	70.5 ± 22
sgRNA knockout: sgATF6, 1000 nM	89.6 ± 17
sgRNA knockout: sgATF6, 10000 nM	61.2 ± 10
sgRNA knockout: sgATG7, 10 nM	124 ± 15
sgRNA knockout: sgATG7, 100 nM	85.2 ± 9
sgRNA knockout: sgATG7, 1000 nM	101 ± 12
sgRNA knockout: sgATG7, 10000 nM	66.6 ± 2.1
sgRNA knockout: sgERN1, 10 nM	100 ± 5.4
sgRNA knockout: sgERN1, 100 nM	93.3 ± 1.7
sgRNA knockout: sgERN1, 1000 nM	96.2 ± 2.1
sgRNA knockout: sgERN1, 10000 nM	85.3 ± 8.2
sgRNA knockout: sgHSF1, 10 nM	105 ± 2.5
sgRNA knockout: sgHSF1, 100 nM	86.1 ± 20
sgRNA knockout: sgHSF1, 1000 nM	95.8 ± 2.6
sgRNA knockout: sgHSF1, 10000 nM	78.5 ± 12
sgRNA knockout: sgHSF2, 10 nM	114 ± 1.1
sgRNA knockout: sgHSF2, 100 nM	81.4 ± 5
sgRNA knockout: sgHSF2, 1000 nM	89.6 ± 7.4
sgRNA knockout: sgHSF2, 10000 nM	71.7 ± 3.3
sgRNA knockout: sgKEAP1, 10 nM	97.6 ± 10
sgRNA knockout: sgKEAP1, 100 nM	85.6 ± 7
sgRNA knockout: sgKEAP1, 1000 nM	98.1 ± 12
sgRNA knockout: sgKEAP1, 10000 nM	79.2 ± 9.3
sgRNA knockout: sgNFE2L2, 10 nM	94.3 ± 8.9
sgRNA knockout: sgNFE2L2, 100 nM	94.9 ± 4.8
sgRNA knockout: sgNFE2L2, 1000 nM	95.4 ± 8.4
sgRNA knockout: sgNFE2L2, 10000 nM	65.4 ± 12
sgRNA knockout: sgSLC35F2, 10 nM	103 ± 11
sgRNA knockout: sgSLC35F2, 100 nM	97 ± 24
sgRNA knockout: sgSLC35F2, 1000 nM	99 ± 16
sgRNA knockout: sgSLC35F2, 10000 nM	102 ± 3.8
sgRNA knockout: sgXBP1, 10 nM	109 ± 7.9
sgRNA knockout: sgXBP1, 100 nM	84.1 ± 0.95
sgRNA knockout: sgXBP1, 1000 nM	103 ± 3.3
sgRNA knockout: sgXBP1, 10000 nM	79.6 ± 2.8

O=C(O)CCCc1ccc(N(CCCl)CCCl)cc1 [Chlorambucil]
Details	relative cell number
sgRNA knockout: sgATF3, 10 nM	89.9 ± 12
sgRNA knockout: sgATF3, 100 nM	101 ± 3.6
sgRNA knockout: sgATF3, 1000 nM	94 ± 13
sgRNA knockout: sgATF3, 10000 nM	88.3 ± 12
sgRNA knockout: sgATF4, 10 nM	95.3 ± 4.3
sgRNA knockout: sgATF4, 100 nM	91.7 ± 7.2
sgRNA knockout: sgATF4, 1000 nM	106 ± 6
sgRNA knockout: sgATF4, 10000 nM	68.6 ± 5.2
sgRNA knockout: sgATF6, 10 nM	84.7 ± 20
sgRNA knockout: sgATF6, 100 nM	91.3 ± 13
sgRNA knockout: sgATF6, 1000 nM	103 ± 3.7
sgRNA knockout: sgATF6, 10000 nM	80.6 ± 3.5
sgRNA knockout: sgATG7, 10 nM	83.8 ± 9.3
sgRNA knockout: sgATG7, 100 nM	93.9 ± 3.8
sgRNA knockout: sgATG7, 1000 nM	112 ± 10
sgRNA knockout: sgATG7, 10000 nM	96.9 ± 6.1
sgRNA knockout: sgERN1, 10 nM	96.6 ± 3.2
sgRNA knockout: sgERN1, 100 nM	89.1 ± 2.5
sgRNA knockout: sgERN1, 1000 nM	98.7 ± 17
sgRNA knockout: sgERN1, 10000 nM	77.5 ± 8.2
sgRNA knockout: sgHSF1, 10 nM	93.3 ± 4
sgRNA knockout: sgHSF1, 100 nM	98.3 ± 6.6
sgRNA knockout: sgHSF1, 1000 nM	102 ± 4.4
sgRNA knockout: sgHSF1, 10000 nM	83.998 ± 0.027
sgRNA knockout: sgHSF2, 10 nM	89.2 ± 2.2
sgRNA knockout: sgHSF2, 100 nM	90.8 ± 17
sgRNA knockout: sgHSF2, 1000 nM	78 ± 13
sgRNA knockout: sgHSF2, 10000 nM	91.3 ± 1.8
sgRNA knockout: sgKEAP1, 10 nM	92 ± 14
sgRNA knockout: sgKEAP1, 100 nM	87.3 ± 7.3
sgRNA knockout: sgKEAP1, 1000 nM	104 ± 11
sgRNA knockout: sgKEAP1, 10000 nM	85.5 ± 12
sgRNA knockout: sgNFE2L2, 10 nM	91.6 ± 8.1
sgRNA knockout: sgNFE2L2, 100 nM	89.3 ± 0.33
sgRNA knockout: sgNFE2L2, 1000 nM	95.2 ± 7.2
sgRNA knockout: sgNFE2L2, 10000 nM	78.1 ± 1.8
sgRNA knockout: sgSLC35F2, 10 nM	89.4 ± 5.6
sgRNA knockout: sgSLC35F2, 100 nM	108 ± 5.3
sgRNA knockout: sgSLC35F2, 1000 nM	83.6 ± 16
sgRNA knockout: sgSLC35F2, 10000 nM	92.2 ± 3.3
sgRNA knockout: sgXBP1, 10 nM	89.8 ± 13
sgRNA knockout: sgXBP1, 100 nM	96.4 ± 9.9
sgRNA knockout: sgXBP1, 1000 nM	93.8 ± 12
sgRNA knockout: sgXBP1, 10000 nM	80.9 ± 11
